Data from PubChem BioAssay (NCATS).
Where “and” joins values, the source holds several entries; their conditions need not be identical. Equal entries are not always repeated. The shares of active, inactive and inconclusive entries below differ from those in the screen. For some of these results: Potencies of inconclusive entries are doubtful fits and often do not repeat. For some of these results: A note “side channel” means that the fit belongs to a control or component signal, not to the main read-out. Calls of active or inactive are those of the source. Unless noted, the call rests on the fitted dose curve; in most records, active means well fitted curve in the direction sought with a large enough effect; inconclusive means small, poorly fitted or top-dose-only effect, or another doubt; inactive means no such curve, though single readings can be large; an effect the other way counts as inactive or inconclusive.

Protein sequences, listed by entry. Tags and fused reporters are not part of them. Lines headed by an entry give the natural chain unless they say otherwise; changes in a name come on top.
UniProt P10275: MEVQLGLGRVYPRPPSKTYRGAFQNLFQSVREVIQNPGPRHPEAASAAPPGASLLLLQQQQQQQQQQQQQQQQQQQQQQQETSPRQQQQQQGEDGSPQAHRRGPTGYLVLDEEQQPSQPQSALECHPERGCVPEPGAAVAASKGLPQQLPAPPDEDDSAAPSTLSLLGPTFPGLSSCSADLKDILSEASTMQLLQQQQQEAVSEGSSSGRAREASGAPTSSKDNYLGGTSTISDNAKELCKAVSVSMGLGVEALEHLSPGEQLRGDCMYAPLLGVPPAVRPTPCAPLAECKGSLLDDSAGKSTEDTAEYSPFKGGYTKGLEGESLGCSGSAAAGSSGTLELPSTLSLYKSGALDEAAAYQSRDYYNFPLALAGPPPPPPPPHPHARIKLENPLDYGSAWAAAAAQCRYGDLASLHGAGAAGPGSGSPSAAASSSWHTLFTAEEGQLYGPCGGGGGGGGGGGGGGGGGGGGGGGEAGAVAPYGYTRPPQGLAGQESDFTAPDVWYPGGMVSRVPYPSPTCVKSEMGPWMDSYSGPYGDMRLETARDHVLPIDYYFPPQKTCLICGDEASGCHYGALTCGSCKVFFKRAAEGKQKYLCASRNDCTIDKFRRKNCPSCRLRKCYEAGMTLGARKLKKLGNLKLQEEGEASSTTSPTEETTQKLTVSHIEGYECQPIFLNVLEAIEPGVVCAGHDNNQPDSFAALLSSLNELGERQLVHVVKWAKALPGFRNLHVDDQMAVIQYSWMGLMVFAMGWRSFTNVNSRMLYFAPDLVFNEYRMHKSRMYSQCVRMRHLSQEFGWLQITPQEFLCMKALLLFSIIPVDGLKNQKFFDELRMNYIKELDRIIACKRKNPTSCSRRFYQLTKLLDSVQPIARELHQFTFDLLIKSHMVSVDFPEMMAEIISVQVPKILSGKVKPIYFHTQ
UniProt Q03181: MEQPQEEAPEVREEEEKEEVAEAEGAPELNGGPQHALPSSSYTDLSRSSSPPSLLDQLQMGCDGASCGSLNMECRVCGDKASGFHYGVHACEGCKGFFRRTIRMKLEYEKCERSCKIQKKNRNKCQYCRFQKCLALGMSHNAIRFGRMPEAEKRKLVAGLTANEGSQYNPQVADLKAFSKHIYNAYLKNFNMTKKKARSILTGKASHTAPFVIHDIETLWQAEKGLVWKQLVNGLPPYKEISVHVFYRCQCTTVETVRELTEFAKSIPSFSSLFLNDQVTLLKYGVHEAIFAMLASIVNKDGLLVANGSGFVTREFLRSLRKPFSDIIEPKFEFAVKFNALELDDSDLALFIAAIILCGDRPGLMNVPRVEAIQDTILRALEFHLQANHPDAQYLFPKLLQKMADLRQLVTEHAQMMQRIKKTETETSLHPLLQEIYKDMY
UniProt P10828: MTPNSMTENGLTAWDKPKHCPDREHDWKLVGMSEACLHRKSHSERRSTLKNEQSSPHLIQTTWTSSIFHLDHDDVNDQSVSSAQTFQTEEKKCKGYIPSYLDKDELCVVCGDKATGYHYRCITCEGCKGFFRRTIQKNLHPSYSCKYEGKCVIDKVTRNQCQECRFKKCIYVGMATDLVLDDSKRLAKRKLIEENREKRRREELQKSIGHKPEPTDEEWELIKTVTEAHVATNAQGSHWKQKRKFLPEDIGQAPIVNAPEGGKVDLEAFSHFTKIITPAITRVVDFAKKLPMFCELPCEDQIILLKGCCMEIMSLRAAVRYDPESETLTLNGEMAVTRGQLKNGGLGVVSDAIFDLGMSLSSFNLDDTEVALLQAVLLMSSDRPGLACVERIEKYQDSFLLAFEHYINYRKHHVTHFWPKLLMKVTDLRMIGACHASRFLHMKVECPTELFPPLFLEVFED
UniProt P51449: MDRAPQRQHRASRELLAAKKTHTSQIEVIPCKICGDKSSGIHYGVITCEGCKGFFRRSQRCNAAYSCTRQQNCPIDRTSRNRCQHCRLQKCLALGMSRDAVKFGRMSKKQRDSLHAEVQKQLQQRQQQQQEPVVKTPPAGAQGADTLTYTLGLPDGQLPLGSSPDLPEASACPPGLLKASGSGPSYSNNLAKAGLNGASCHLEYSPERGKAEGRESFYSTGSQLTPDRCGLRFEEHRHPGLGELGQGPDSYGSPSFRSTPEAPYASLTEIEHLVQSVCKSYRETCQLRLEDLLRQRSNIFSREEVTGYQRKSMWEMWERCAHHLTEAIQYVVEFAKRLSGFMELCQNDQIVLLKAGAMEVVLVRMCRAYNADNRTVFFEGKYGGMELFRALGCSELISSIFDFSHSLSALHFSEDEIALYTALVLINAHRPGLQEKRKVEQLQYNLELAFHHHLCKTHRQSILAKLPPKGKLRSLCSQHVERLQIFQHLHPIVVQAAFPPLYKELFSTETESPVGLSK
UniProt P19793: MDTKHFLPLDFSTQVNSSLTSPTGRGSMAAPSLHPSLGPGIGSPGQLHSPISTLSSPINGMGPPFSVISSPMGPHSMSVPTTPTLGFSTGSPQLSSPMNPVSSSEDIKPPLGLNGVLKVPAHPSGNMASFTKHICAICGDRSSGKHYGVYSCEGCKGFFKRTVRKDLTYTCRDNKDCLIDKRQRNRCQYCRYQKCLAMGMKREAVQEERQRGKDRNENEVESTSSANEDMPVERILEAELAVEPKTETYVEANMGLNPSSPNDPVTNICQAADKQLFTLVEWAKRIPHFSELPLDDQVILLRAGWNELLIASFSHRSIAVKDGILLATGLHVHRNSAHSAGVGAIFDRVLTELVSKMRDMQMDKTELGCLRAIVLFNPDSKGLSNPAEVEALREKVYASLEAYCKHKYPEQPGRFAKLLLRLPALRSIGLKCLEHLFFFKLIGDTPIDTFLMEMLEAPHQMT
UniProt P08684, whole entry, looked up: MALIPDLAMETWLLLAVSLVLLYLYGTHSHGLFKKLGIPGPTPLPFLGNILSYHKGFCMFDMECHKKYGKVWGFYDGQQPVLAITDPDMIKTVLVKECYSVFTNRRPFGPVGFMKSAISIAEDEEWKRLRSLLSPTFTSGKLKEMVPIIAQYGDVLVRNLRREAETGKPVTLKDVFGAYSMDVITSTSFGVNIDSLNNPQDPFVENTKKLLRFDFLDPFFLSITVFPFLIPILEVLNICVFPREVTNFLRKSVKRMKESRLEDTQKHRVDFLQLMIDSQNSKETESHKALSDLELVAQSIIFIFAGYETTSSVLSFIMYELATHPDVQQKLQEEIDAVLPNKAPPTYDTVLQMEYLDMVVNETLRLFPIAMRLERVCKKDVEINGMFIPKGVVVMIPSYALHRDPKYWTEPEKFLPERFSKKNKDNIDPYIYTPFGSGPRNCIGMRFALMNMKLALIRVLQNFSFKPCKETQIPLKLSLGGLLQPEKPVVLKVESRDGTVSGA

Tests used:
[1] = MultiTox-Fluor Cytotoxicity Assay - LYMP1-001 - Live Cells (AID 947);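 further: 0% = DMSO only and full inhibition = tetraoctylammonium bromide control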
[2] = molecular target: Androgen receptor (Homo sapiens) (UniProt P10275); test: qHTS assay for small molecule antagonists of androgen receptor signaling (AID 588516; active means well fitted curve in the direction sought with a large enough effect in the signal ratio, with a control signal flat, not every such curve was filed as active; inconclusive means small, poorly fitted or top-dose-only effect, or effect the other way, or a change in a side signal; inactive means no such curve, though single readings can be large or run the other way; the % refers to the signal ratio; further: on the % scale 0 is the no-effect control and ±100 the full control effect); conditions: AR-UAS-bla HEK293, beta-lactamase ratio, antagonist mode, 16 h; activity change, negative = inhibition: at 76.8 µM (top of the series)
How it was run: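 Cells were plated and incubated 5 h, compounds added in titration, then R1881 (10 nM final) as agonist. After 16 h at 37 C, CCF4 substrate was loaded for 2 h at room temperature and fluorescence measured.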

[3] = molecular target: Peroxisome proliferator-activated receptor delta (Homo sapiens) (UniProt Q03181); test: qHTS assay for small molecule agonists of peroxisome proliferator-activated receptor delta signaling (AID 588534; calls by dose curve;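 further: 0% = DMSO basal wells and 100% = positive control agonist at 10 µM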); conditions: HEK293T PPARdelta-UAS-bla, beta-lactamase ratio, 18 h; activation: at 76.7 µM (top of the series) unless noted
How it was run: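 Agonist-mode qHTS; reporter cells, 5 hrs 37 C pre-incubation; compound titration, 18 hrs 37 C; CCF4 dye, 2 hrs RT; fluorescence read. EC50/efficacy via Hill fit.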

[4] = qHTS assay to identify small molecules that stimulate interleukin-8 (IL-8) secretion (AID 651758; active means well fitted activation curve with a large enough effect in the signal ratio; inconclusive means small, poorly fitted or top-dose-only effect, or effect the other way, or a change in a side signal; the % refers to the signal ratio; further: 0% is about no effect); conditions: HTRF ratio (665/615); activation: at 92.2 µM (top of the series)
How it was run: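 Secreted IL-8 measured homogeneously by TR-FRET (two labelled anti-IL-8 antibodies, 1-3 h at room temperature) after a 16 h, 37 C compound treatment of THP-1 cells at 2000 cells/well.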

[5] = molecular target: Androgen receptor (Homo sapiens) (UniProt P10275); test: qHTS assay for small molecule agonists of androgen receptor signaling (AID 588515; active means well fitted curve in the direction sought with a large enough effect in the signal ratio, with a control signal flat; inconclusive means small, poorly fitted or top-dose-only effect, or effect the other way, or a change in a side signal; inactive means no such curve, though single readings can be large or run the other way; the % refers to the signal ratio; further: potency means the concentration at half of the fitted maximal effect; on activation: on the % scale 0 is the no-effect control and ±100 the full control effect); conditions: AR-UAS-bla HEK293, beta-lactamase ratio, agonist 16 h; activation: stronger effect = higher value
How it was run: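 Stimulation of an AR-responsive β-lactamase reporter in GripTite HEK293 cells was measured after 16 h compound exposure at 37 °C, via CCF4 fluorescence after 2 h RT. EC50 from Hill fits, normalized to R1881 at 30 nM.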

[6] = molecular target: Peroxisome proliferator-activated receptor gamma (Homo sapiens) (UniProt P37231); test: qHTS assay for small molecule antagonists of peroxisome proliferator-activated receptor gamma signaling (AID 588537; active means well fitted inhibition curve with a large enough effect in the signal ratio, with a control signal flat, not every such curve was filed as active; inconclusive means small, poorly fitted or top-dose-only effect, or effect the other way, or a change in a side signal; the % refers to the signal ratio;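 further: reporter cells co-stimulated with 50 nM rosiglitazone agonist during compound treatment; % of control where 0% means no effect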); conditions: HEK293 PPARg-UAS-bla, beta-lactamase ratio, antagonist mode; activity, negative = inhibition: at 76.8 µM (top of the series) unless noted
How it was run: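 Antagonist-mode β-lactamase reporter screen run as a titration series. HEK293 PPARγ-UAS-bla cells are stimulated with rosiglitazone (50 nM final) for 16 h, then CCF4 is read at 460/530 nm. Data are scaled between DMSO and rosiglitazone and fitted to the Hill equation.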

[7] = molecular target: Vitamin D3 receptor (Homo sapiens) (UniProt P11473); test: qHTS assay for small molecule agonists of vitamin D receptor signaling (AID 588543; calls by dose curve; further: potency means the concentration at half of the fitted maximal effect); conditions: HEK293T VDR-UAS-bla, beta-lactamase ratio, 16 h; activation: at 76.8 µM (top of the series)
How it was run: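 Measured: β-lactamase reporter activity (CCF4, 405 nm excitation, 460/530 nm emission) in HEK293T VDR-UAS-bla cells after 16 h compound exposure at 37 °C. Normalization against 50 nM 1α,25-dihydroxyvitamin D3 and DMSO; Hill-fit EC50.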

[8] = qHTS assay for small molecule agonists of the antioxidant response element (ARE) signaling pathway (AID 651741; active means well fitted activation curve with a large enough effect in the signal ratio; inconclusive means small, poorly fitted or top-dose-only effect, or effect the other way, or a change in a side signal; the % refers to the signal ratio; further: potency means the concentration at half of the fitted maximal effect; on activation: % of control where 0% means no effect); conditions: HepG2 ARE-bla reporter, beta-lactamase FRET ratio, 16 h; activation: at 96 µM (top of the series) unless noted
How it was run: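 Beta-lactamase reporter under ARE control in HepG2 cells, 2,000 per well, was induced by 16 h compound treatment at 37 C. Read-out was fluorescence from LiveBLAzer B/G FRET substrate after 2 h at room temperature.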

[9] = Cell Viability - LYMP2-002 (AID 977);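 further: compound exposure lasted 24 h at 37 °C; plate controls were DMSO only for no effect and 92 µM tetraoctylammonium bromide for full effect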
How it was run: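 Human lymphoblastoid cells (2500/well) in complete medium were preincubated 5 hr at 37 C, then exposed to compounds for 24 hr at 37 C. Intracellular ATP was read by CellTiter-Glo luminescence; AC50 came from Hill-equation concentration-response fits.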

[10] = molecular target: Glucocorticoid receptor (Homo sapiens) (UniProt P04150); test: qHTS assay for small molecule agonists of glucocorticoid receptor signaling (AID 588532; active means well fitted curve in the direction sought with a large enough effect in the signal ratio, with a control signal flat; inconclusive means small, poorly fitted or top-dose-only effect, or a change in a side signal; inactive means no such curve, though single readings can be large or run the other way; the % refers to the signal ratio; further: potency means the concentration at half of the fitted maximal effect); conditions: HeLa MMTV-bla, beta-lactamase ratio, agonist, 18 h; activation: stronger effect = higher value, percent of dexamethasone control, DMSO zero
How it was run: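 Using MMTV-bla HeLa cells in medium with 1% stripped FBS and 25 mM HEPES, compounds were titrated and incubated overnight-length (18 h). Beta-lactamase cleavage of CCF4 was quantified by dual-emission fluorescence.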

[11] = molecular target: Peroxisome proliferator-activated receptor delta (Homo sapiens) (UniProt Q03181); test: qHTS assay for small molecule antagonists of peroxisome proliferator-activated receptor delta signaling (AID 588535; active means well fitted inhibition curve with a large enough effect in the signal ratio, with a control signal flat, not every such curve was filed as active; inconclusive means small, poorly fitted or top-dose-only effect, or effect the other way, or a change in a side signal; inactive means no such curve, though single readings can be large or run the other way; the % refers to the signal ratio); conditions: HEK293T PPARd-UAS-bla, beta-lactamase FRET ratio, 18 h
How it was run: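 Titrations were run on PPAR-delta-UAS-bla HEK293T cells in charcoal/dextran-stripped serum, incubated 18 h at 37 C. CCF4 fluorescence (460/530 nm) after 2 h RT; Hill equation yields IC50 and maximal response.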

[12] = molecular target: Thyroid hormone receptor beta (Homo sapiens) (UniProt P10828); test: qHTS assay for small molecule agonists of thyroid hormone receptor beta signaling (AID 588545; calls by dose curve; further: potency means the concentration at half of the fitted maximal effect); conditions: TR-UAS-bla GripTite HEK 293, beta-lactamase ratio, agonist mode, 18 h; activation: at 76.7 µM, percent of T3 response, DMSO as zero
How it was run: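 In this cell-based screen, titrated compounds act on HEK 293 cells held in medium with 2% charcoal/dextran FBS, NEAA and pyruvate for 18 hrs at 37 C. Responses are expressed relative to T3 (10 nM) as 100% and basal DMSO as 0%.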

[13] = molecular target: Thyroid hormone receptor beta (Homo sapiens) (UniProt P10828); test: qHTS assay for small molecule antagonists of thyroid hormone receptor beta signaling (AID 588547; active means well fitted inhibition curve with a large enough effect in the signal ratio, with a control signal flat, not every such curve was filed as active; inconclusive means small, poorly fitted or top-dose-only effect, or effect the other way, or a change in a side signal; the % refers to the signal ratio;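 further: cells stimulated with 0.4 nM T3 agonist during compound exposure; on the % scale 0 is the no-effect control and ±100 the full control effect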); conditions: TR-UAS-bla HEK293, beta-lactamase ratio, antagonist mode, 18 h
How it was run: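 Inhibition of T3-driven (0.4nM final) beta-lactamase reporter activity was measured over 0.59 nM to 92 uM compound after 18 h at 37 C. The cells were GripTite HEK293 TR-UAS-bla in charcoal/dextran-stripped serum, with CCF4 ratio read-out and IC50 from Hill fits.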

[14] = molecular target: Nuclear receptor ROR-gamma (Homo sapiens) (UniProt P51449); test: qHTS assay for small molecule antagonists of the retinoid-related orphan receptor gamma (ROR-gamma) signaling pathway (AID 651802); further: potency means the concentration at half of the fitted maximal effect; nearly all actives have a fitted effect of over 60% in size
How it was run: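 Steps: cells dispensed; compound or DMSO transferred by pin tool; doxycycline added to induce the ROR response element-driven luciferase; plates held 16hr at 37C; ONE-Glo added and luminescence measured.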

[15] = Cellular Toxicity (caspase-3) H-4-II-E (AID 663); conditions: H-4-II-E rat hepatoma, scaled: DMSO 0%, 100 µM tamoxifen 100%; at 92.2 µM (top of the series);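 further: cells exposed to compound for 16 hr before readout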
How it was run: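 Caspase 3/7 activation measured by luminescent aminoluciferin substrate cleavage after 16 hr compound treatment of H-4-II-E cells in complete medium. Increase normalized between DMSO (basal) and 100 uM tamoxifen (100%); Hill-equation AC50 from concentration-response.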

[16] = Cell Viability - LYMP2-010 (AID 981); further: on the % scale 0 is the no-effect control and ±100 the full control effect; nearly all actives have a fitted effect of over 55% in size
How it was run: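 Steps: seed 2500 LYMP2-010 cells per well; incubate 5 hr at 37 C; add compound; incubate 24 hr at 37 C; add CellTiter-Glo, wait 30 min at room temperature; read luminescence. Concentration-response fitted to Hill equation for AC50.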

[17] = Cell Viability - LYMP2-018 (AID 985);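 further: compound exposure lasted 24 hr at 37 °C; plate controls were DMSO only for no effect and tetraoctylammonium bromide at 92 µM for full effect; nearly all actives have a fitted effect of over 50% in size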
How it was run: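 Seed 2500 lymphoblastoid cells per well, incubate 5 hr at 37 C, add compound and incubate 24 hr at 37 C, add CellTiter-Glo, wait 30 min at room temperature, then read luminescence.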

[18] = molecular target: Retinoic acid receptor RXR-alpha (Homo sapiens) (UniProt P19793); test: qHTS assay for small molecule antagonists of retinoid X receptor alpha signaling (AID 588546; active means well fitted inhibition curve with a large enough effect in the signal ratio, with a control signal flat, not every such curve was filed as active; inconclusive means small, poorly fitted or top-dose-only effect, or effect the other way, or a change in a side signal; inactive means no such curve, though single readings can be large or run the other way; the % refers to the signal ratio;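 further: cells stimulated with 9-cis-retinoic acid as agonist; on the % scale 0 is the no-effect control and ±100 the full control effect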); conditions: HEK293T RXRa-UAS-bla, beta-lactamase ratio, antagonist mode
How it was run: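 Beta-lactamase reporter inhibition, read as CCF4 fluorescence ratio (ex 405, em 460/530 nm) after 2 h at RT. HEK293T UAS-bla cells, 2500/well, were stimulated with 9-cis-RA at 500 or 100 nM final alongside test compound for 18 h at 37 C.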

[19] = Cellular Toxicity (caspase-3) N2a (AID 665); conditions: N2a cells, luminescence, normalized: DMSO 0%, 10 µM staurosporine 100%; at 92.2 µM (top of the series);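 further: compound exposure lasted 16 h at 37 °C before readout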
How it was run: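 Caspase-3/7 activation, measured as increased luminescence from aminoluciferin release, is quantified in mouse N2a cells exposed to compounds for 16 h. Values are normalized to DMSO and 10 uM staurosporine, with AC50 derived by Hill modelling.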

[20] = molecular target: Cytochrome P450 3A4 (Homo sapiens) (UniProt P08684); test: qHTS Assay for Activators of Cytochrome P450 3A4 (AID 885); further: nearly all actives have a fitted effect of over 65% in size
How it was run: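 Luminescent readout of luciferin formed from 25 uM Luciferin-PPXE (KM level) by 20 nM CYP3A4 in 200 mM KPO4, with 60 min NADPH-driven reaction at room temperature after 10 min compound exposure. Ketoconazole (57 uM) defined 100% inhibition.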

[21] = MultiTox-Fluor Cytotoxicity Assay - LYMP1-002 - Dead Cells (AID 960); conditions: LYMP1-002 lymphoblastoid cells, dead-cell protease fluorescence; cytotoxicity (dead cells): at 46.1 µM (top of the series); further: potency means the concentration at half of the fitted maximal effect; nearly all actives have a fitted effect of over 60% in size
How it was run: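 Cells were plated, rested 5 hr, then treated with compound dilution series for 16 hr at 37 C. After adding substrate reagent and 60 min at room temperature, dead-cell protease fluorescence gave concentration-response curves fitted by the Hill equation.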

[22] = Cell Viability - LYMP2-004 (AID 966); conditions: LYMP2-004 lymphoblastoid cell viability, qHTS; activity change, negative = cytotoxicity: at 92.2 µM (top of the series);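 further: plate controls were DMSO only for no effect and tetraoctylammonium bromide control for full effect; nearly all actives have a fitted effect of over 65% in size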
How it was run: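 qHTS cytotoxicity: human lymphoblastoid line, 24 hr compound treatment, 37 C, complete medium. Viability read as cellular ATP via luciferase luminescence; tetraoctylammonium bromide served as positive control.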

[23] = Cell Viability - LYMP2-012 (AID 982); conditions: LYMP2-012 lymphoblastoid cell viability qHTS; activity change, negative = cytotoxicity: at 92.2 µM (top of the series);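 further: cellular ATP by luciferase luminescence where a drop means cytotoxicity; cells exposed to compound for one day before reading; 0% = DMSO only and full loss = 92 µM tetraoctylammonium bromide; nearly all actives have a fitted effect of over 55% in size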
[24] = qHTS assay for small molecule disruptors of the mitochondrial membrane potential - 5 hr assay (AID 651755; calls by dose curve; further: on the % scale 0 is the no-effect control and ±100 the full control effect; nearly all actives have a fitted effect of over 40% in size); conditions: JC-1-type ratio dye; ratio change, negative = disruption: at 92.2 µM (top of the series)
How it was run: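 Membrane-potential dye readout: red aggregate (540 ex/590 em) versus green monomer (490 ex/535 em) fluorescence after 30 min dye loading, following 5 hr compound exposure at 37C of overnight-plated HepG2 cells.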

c1ccc2c(c1)[nH]c1ccccc12
Potency [1]: inactive | activity change, negative = inhibition [2]: inconclusive: -47.4% | Potency [3]: inactive | activation [4]: inconclusive: 7.39%

CNc1nc(=O)n(C2CCC(O)CC2)c(=O)n1C (configuration not stated)
Potency [5]: inconclusive: 28.2 µM [side channel, falling, partial curve, poor fit] | Potency [6]: inactive | Potency [7]: inconclusive: 25.1 µM [side channel, rising, partial curve, poor fit] | Potency [8]: inconclusive: 61.1 µM [activator, partial curve]

CCCCCCCCCC(=O)O
Potency [9]: inactive | activity change, negative = inhibition [2]: inconclusive: -34.5% | Potency [10]: inconclusive: 17.8 nM [side channel, falling, full curve, poor fit] | activity change, negative = inhibition ([11]; activity change, negative = inhibition: at 76.7 µM (top of the series) unless noted): inconclusive: 11.9% | activity change, negative = inhibition ([11]; at 76.7 µM (top of the series)): inactive: -0.596% | activation [12]: inconclusive: -26.2% and inactive: 0.856% | activity change % (negative = inhibition) [13]: inconclusive: 14.2% | activation [8]: inconclusive: 9.35% | activation [4]: inconclusive: -13.5% | Potency [14]: inconclusive: 84.1 µM [inhibitor, partial curve, poor fit]

O=C(Cl)c1ccccc1[N+](=O)[O-]
caspase-3 activation [15]: inactive: 1.33% | Potency [16]: inactive | Potency [17]: inactive | activation [5]: inactive: 6.98% | activity, negative = inhibition [6]: inconclusive: 8.18% | Potency [12]: inconclusive: 2.51 µM [side channel, falling, full curve, poor fit] | max response [18]: inconclusive: -5.48% | Potency [8]: inconclusive: 75 µM [activator, partial curve, poor fit]

COc1cccc2sc(N)nc12
caspase-3 activation [19]: inactive: -4.02% | Potency [20]: inactive | Potency [21]: inconclusive: 15.8 µM [cytotoxic, single point] | Potency [22]: inactive | Potency [9]: inactive | Potency [23]: inactive | activation [5]: inconclusive: 7.3% | activity, negative = inhibition [6]: inconclusive: -3.78% | max response [18]: inactive: -10.9% | ratio change, negative = disruption [24]: inconclusive: -22.8% | activation [4]: inconclusive: 1.76%
